PubChem BioAssay AID1259424, University of Nebraska Medical Center | 2018

Screen: 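Seek colon cancer survival genes behaving like KSR1, using a six-gene signature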 (primary screen)
Cells: human HCT116 colon cancer cells
Reagents: siRNA pool against human genes, 50 nM
Read-out: 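Log2 levels of six mRNAs (branched-DNA multiplex), adjusted by two reference genes and the non-targeting median, then scored against the average KSR1 knockdown pattern as Pearson r and euclidean distance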
Direction: mean correlation with KSR1 profile: higher = expression change more like KSR1 knockdown
The deposit covers about 14,000 reagents; shown is a part drawn at random. 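Higher correlation or smaller distance means closer resemblance to KSR1 loss; control wells, including KSR1 knockdowns, recur on many plates.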 Further read-outs or replicates are left out here. Not stated in the record: the time to read-out.

| gene | mean correlation with KSR1 profile |
| --- | --- |
| GOLGA6B (golgin A6 family member B) | -0.498 |
| HOMEZ (homeobox and leucine zipper encoding) | 0.382 |
| KLF3 (KLF transcription factor 3) | 0.0766 |
| KCNS2 | -0.383 |
| PRPF19 (pre-mRNA processing factor 19) | -0.0939 |
| KCNQ5 (potassium voltage-gated channel subfamily Q member 5) | -0.1 |
| GSTA1 (glutathione S-transferase alpha 1) | -0.188 |
| NFYC (nuclear transcription factor Y subunit gamma) | 0.487 |
| IFT46 (intraflagellar transport 46) | -0.522 |
| PTPRF (protein tyrosine phosphatase receptor type F) | -0.184 |
| SPOUT1 (SPOUT domain containing methyltransferase 1) | -0.802 |
| NME8 (NME/NM23 family member 8) | -0.00906 |
| FNBP4 (formin binding protein 4) | 0.00615 |
| EIF4G2 (eukaryotic translation initiation factor 4 gamma 2) | 0.735 |
| SPZ1 (spermatogenic leucine zipper 1) | 0.393 |
| DCUN1D2 (defective in cullin neddylation 1 domain containing 2) | -0.412 |
| SLC52A2 | 0.548 |
| PRR15L (proline rich 15 like) | -0.144 |
| APOC4 (apolipoprotein C4) | -0.262 |
| FSTL1 (follistatin like 1) | 0.16 |
| SEC24C (SEC24 homolog C, COPII component) | 0.15 |
| AHCYL1 (adenosylhomocysteinase like 1) | 0.108 |
| ARF6 (ARF GTPase 6) | 0.802 |
| CSK (C-terminal Src kinase) | 0.187 |
| SPTB (spectrin beta, erythrocytic) | -0.386 |
| KIFC3 (kinesin family member C3) | 0.0933 |
| SPATA6 (spermatogenesis associated 6) | -0.32 |
| RERGL (RERG like) | 0.12 |
| MET (MET proto-oncogene, receptor tyrosine kinase) | -0.349 |
| CLEC4M (C-type lectin domain family 4 member M) | -0.133 |
| MIB1 (MIB E3 ubiquitin protein ligase 1) | 0.0302 |
| PRIM1 (DNA primase subunit 1) | 0.0931 |
| ALX3 (ALX homeobox 3) | -0.000834 |
| EXPH5 (exophilin 5) | -0.241 |
| E4F1 (E4F transcription factor 1) | 0.00696 |
| CDH19 (cadherin 19) | 0.875 |
| STK25 (serine/threonine kinase 25) | 0.556 |
| SULT1B1 (sulfotransferase family 1B member 1) | -0.481 |
| SLC27A2 | 0.0514 |
| SPRY4 (sprouty RTK signaling antagonist 4) | 0.193 |
| BMI1 (BMI1 proto-oncogene, polycomb ring finger) | -0.67 |
| CLCA3P (chloride channel accessory 3, pseudogene) | 0.00306 |
| TEAD2 (TEA domain transcription factor 2) | 0.155 |
| ZNF43 (zinc finger protein 43) | -0.163 |
| ECM1 (extracellular matrix protein 1) | -0.732 |
| DRC8 (dynein regulatory complex subunit 8) | 0.399 |
| TTYH1 (tweety family member 1) | 0.142 |
| CCT6B (chaperonin containing TCP1 subunit 6B) | 0.129 |
| NSL1 (NSL1 component of MIS12 kinetochore complex) | 0.228 |
| STOML1 (stomatin like 1) | -0.39 |
| SUSD6 (sushi domain containing 6) | -0.71 |
| ABCD2 (ATP binding cassette subfamily D member 2) | 0.324 |
| IFRD1 (interferon related developmental regulator 1) | -0.42 |
| SCUBE1 (signal peptide, CUB domain and EGF like domain containing 1) | -0.0141 |
| TRIM27 (tripartite motif containing 27) | 0.422 |
| TBC1D4 (TBC1 domain family member 4) | -0.132 |
| NFATC4 (nuclear factor of activated T cells 4) | -0.138 |
| ADGRG6 (adhesion G protein-coupled receptor G6) | 0.487 |
| OLFM4 (olfactomedin 4) | -0.492 |
| TCL1B (TCL1 family AKT coactivator B) | -0.329 |
| DENND4C (DENN domain containing 4C) | -0.212 |
| ZSCAN2 (zinc finger and SCAN domain containing 2) | -0.453 |
| PIK3C3 (phosphatidylinositol 3-kinase catalytic subunit type 3) | 0.171 |

Quoted from the listing, 11 entries:
| gene | mean correlation with KSR1 profile |
| --- | --- |
| PRPF19 (pre-mRNA processing factor 19) | -0.0939 |
| KCNQ5 (potassium voltage-gated channel subfamily Q member 5) | -0.1 |
| GSTA1 (glutathione S-transferase alpha 1) | -0.188 |
| NFYC (nuclear transcription factor Y subunit gamma) | 0.487 |
| IFT46 (intraflagellar transport 46) | -0.522 |
| PTPRF (protein tyrosine phosphatase receptor type F) | -0.184 |
| SPOUT1 (SPOUT domain containing methyltransferase 1) | -0.802 |
| NME8 (NME/NM23 family member 8) | -0.00906 |
| FNBP4 (formin binding protein 4) | 0.00615 |
| EIF4G2 (eukaryotic translation initiation factor 4 gamma 2) | 0.735 |
| SPZ1 (spermatogenic leucine zipper 1) | 0.393 |
